This is one part of the list.

The assay deals with T1, OsSMF1 (Oryza sativa, UniProt Q6ZLB0 1-436).
T1 sequence: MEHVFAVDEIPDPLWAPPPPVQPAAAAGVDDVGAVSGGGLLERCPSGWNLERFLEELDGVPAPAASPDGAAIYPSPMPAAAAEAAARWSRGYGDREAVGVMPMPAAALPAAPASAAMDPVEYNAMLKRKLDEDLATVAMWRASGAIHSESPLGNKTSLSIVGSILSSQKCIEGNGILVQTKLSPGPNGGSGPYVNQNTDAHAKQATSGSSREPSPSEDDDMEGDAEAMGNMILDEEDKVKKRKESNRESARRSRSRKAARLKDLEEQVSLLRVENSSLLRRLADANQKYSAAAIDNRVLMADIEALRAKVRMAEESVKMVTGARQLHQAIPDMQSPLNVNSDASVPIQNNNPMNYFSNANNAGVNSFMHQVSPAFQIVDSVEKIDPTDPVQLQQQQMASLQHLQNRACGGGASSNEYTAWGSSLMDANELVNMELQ
Briefly: protein-binding microarray (RPBM); PBS, 2% BSA, 51.3 ng/ul salmon testes DNA, 50 uM zinc acetate, 200 nM TF, 25 C, 1 h; high values mean tight binding. The conditions noted are these: protein: recombinant; tags: N-terminal polyhistidine and DsRed monomer fusion (pET32a); chain copies: 2; label: CyDye5-dUTP incorporated in the synthesized complementary strand; 3' TTTTT single-stranded linker to array surface; dsDNA, one strand shown. A digest of the protocol:
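The binding signal is fluorescence intensity per feature, in arbitrary units, read on an Axon 4000B scanner. Polyhistidine- and DsRed-tagged transcription factors (N-terminal fusions) from E. coli BL21-CodonPlus were purified on Ni–NTA and applied at 200 nM for 1 h at 25 °C to a double-stranded, BSA-blocked custom Agilent array in buffer with 50 µM zinc acetate.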
As for “CAGCTCCTTGTCACTGTGTTATTCCTTTTGACGCATGTTGCGGAGTCACCTAGTGCAG”, the binding signal is 4610 fluorescence intensity (a.u.).
For the sequence “AGTCCAAGAGCGTGACGCATGTTCGGTACCACGCGCACAACGGAGTCACCTAGTGCAG”, the binding signal is 4740 fluorescence intensity (a.u.).
Turning to “TTCTTATTGTCTTAGCTACAAACGATCCATACAAACATTGCGGAGTCACCTAGTGCAG”, the binding signal is 4240 fluorescence intensity (a.u.).
Regarding “CCCCTAGTGTTATACAGTTACAACTACACCATCGTAGCACCGGAGTCACCTAGTGCAG”, the binding signal was 3230 fluorescence intensity (a.u.).
With “TGTGGTGGTGGAGGAGGAGCCCGCCATATTTGACTACGCACGGAGTCACCTAGTGCAG”, the binding signal is 3320 fluorescence intensity (a.u.).
Next, “CATGTAGAACCCACATGAGTCAATGACATGTAGAACCCACCGGAGTCACCTAGTGCAG”: 4240 fluorescence intensity (a.u.); “TGTTGCGGCCGTGAGACGATCACTGAGTCATTGTCCTCCGCGGAGTCACCTAGTGCAG”: 7950 fluorescence intensity (a.u.).
Regarding “CACACACAAACTTTCAACTTTTCCGTCACGTCGTTCCAATCGGAGTCACCTAGTGCAG”, the binding signal was 4240 fluorescence intensity (a.u.).
Consider “CGTCGTCGTCGTATGTGCAAATTGTGCATGCGTGGTTGCGCGGAGTCACCTAGTGCAG”, for which the binding signal is 4630 fluorescence intensity (a.u.).
In the case of “TCTCGAGCCCCGCACGCCATCATGTCGCCCTCAAGCCCCGCGGAGTCACCTAGTGCAG”, the binding signal was 4250 fluorescence intensity (a.u.).
Consider “GGACATCGTCGTTGTCGTTGCGGGCTTGACGTGGACGGCGCGGAGTCACCTAGTGCAG”, for which the binding signal was 7710 fluorescence intensity (a.u.).
Turning to “CAACTAATCCCTCCGGGTTGATAATACTTGTCGTTTTGGACGGAGTCACCTAGTGCAG”, the binding signal is 4640 fluorescence intensity (a.u.).
Next, “CCCATGGAAATTGTTTAGAATGATGTGGGACCTGTCACATCGGAGTCACCTAGTGCAG”: 4510 fluorescence intensity (a.u.); “GAATGAGAGAAGATGACATGTGGACCCCACATGTCAGTTGCGGAGTCACCTAGTGCAG”: 4120 fluorescence intensity (a.u.); “TAAACTAGTACTACTAGTAGCACCCTAAACCCAAATTGATCGGAGTCACCTAGTGCAG”: 16600 fluorescence intensity (a.u.).
Next, “CCTCCATCTATGTCCTGCTGTCCAACATCTACGCGGATGCCGGAGTCACCTAGTGCAG”: 3820 fluorescence intensity (a.u.).
Next, “CATCGCCATTGCTGCAGGCTTCTCTCTCTTTCCCTTCTTACGGAGTCACCTAGTGCAG”: 15100 fluorescence intensity (a.u.); “TAGACGGGCACCGGCGGCAGCAGAGTCACCTTCCTTTCATCGGAGTCACCTAGTGCAG”: 3360 fluorescence intensity (a.u.); “TGTTGTTACACTATAATTACACCATAGTTACAAATGTAATCGGAGTCACCTAGTGCAG”: 3380 fluorescence intensity (a.u.).
Consider “CCCCACGTGTTAGCTGGGCACGTCATCACCCTCTCCCCTCCGGAGTCACCTAGTGCAG”, for which the binding signal is 19700 fluorescence intensity (a.u.).
The result for “ATCTTGATGATGTCGATCTCGATGTGGACGTGGTCGCCGTCGGAGTCACCTAGTGCAG” reads 4150 fluorescence intensity (a.u.); that for “CGATCAGACGGACACGCAAACCAACCAAATCCCCGCGATCCGGAGTCACCTAGTGCAG”, 3210 fluorescence intensity (a.u.); that for “TCCACCTCGCGAGATCGTTAGGTTTCTCACAACCCGGTGGCGGAGTCACCTAGTGCAG”, 4070 fluorescence intensity (a.u.).
The result for “ACTTTGAGAGTTCTTCGATTTGTGTTTCATCGGGTTTCGGCGGAGTCACCTAGTGCAG” reads 3630 fluorescence intensity (a.u.).
Next, “TAAACGCAGTGGTGATGAGAATGGCACACGCGTACGTGGCCGGAGTCACCTAGTGCAG”: 7530 fluorescence intensity (a.u.); “TTATTAAACACAATATTGCCAAATCATGATGCAATTAGGCCGGAGTCACCTAGTGCAG”: 4220 fluorescence intensity (a.u.); “AATGTCCCCAAGCTTGCCACTCTAGTCATCATCGTGTCGCCGGAGTCACCTAGTGCAG”: 4280 fluorescence intensity (a.u.).
Turning to “GTCATGTAGATGTAGTGATGTGGACACGCTTGCGATAAAACGGAGTCACCTAGTGCAG”, the binding signal is 4120 fluorescence intensity (a.u.).
As to “CTCCTCGTCCGGATCAGCAGCGGGATTCACAGCAAGTCAGCGGAGTCACCTAGTGCAG”, the binding signal was 3150 fluorescence intensity (a.u.).
Next, “AGCTCAGTTTCACAGTTTTCACACATATGTACAATTGACACGGAGTCACCTAGTGCAG”: 3700 fluorescence intensity (a.u.); “CGGCGCTCCCCAACTTCTGCAAGCCACTGCCACGTTTCTGCGGAGTCACCTAGTGCAG”: 10100 fluorescence intensity (a.u.).
The result for “TCAACGTGCTCATAGCTGCCACATGTGTAGTGCACAAATGCGGAGTCACCTAGTGCAG” reads 4210 fluorescence intensity (a.u.); that for “CCAGGTCAACACCGTCACATAGGTGCCAAGTCAGCGAAACCGGAGTCACCTAGTGCAG”, 11900 fluorescence intensity (a.u.).
In the case of “CAGCATCATCGTGATGCCGTCATTGATTTGCATGAAGGCCCGGAGTCACCTAGTGCAG”, the binding signal is 3420 fluorescence intensity (a.u.).
Consider “GGCTGCCGAGCGGCGTGGTGGCGTGCGGCCGTGGTGGTGGCGGAGTCACCTAGTGCAG”, for which the binding signal was 3550 fluorescence intensity (a.u.).
Next, “CATGACCGCGGATTTGGGTCTGAGAGGTCATGAGCGAGAGCGGAGTCACCTAGTGCAG”: 12500 fluorescence intensity (a.u.); “CGGTCGACCCACCGTCTGCCACGTCAGCTTGCCGCCCACCCGGAGTCACCTAGTGCAG”: 22800 fluorescence intensity (a.u.); “CTGAGGCTCAATACAATGTGTCCCATATTACGCAGTATACCGGAGTCACCTAGTGCAG”: 3200 fluorescence intensity (a.u.).
For the sequence “GGAGAAACAATATTCGTCATACATTTTGAACCAGATCAAGCGGAGTCACCTAGTGCAG”, the binding signal is 31700 fluorescence intensity (a.u.).
As for “ATTATGCAGGTAATATGTAATTTGATAGCTTAATTAATTACGGAGTCACCTAGTGCAG”, the binding signal is 33000 fluorescence intensity (a.u.).
The result for “TCATGAAATTAATAGGATGCCACGTCGACTTGGTTGTTCCCGGAGTCACCTAGTGCAG” reads 25100 fluorescence intensity (a.u.); that for “ACGACGTGCTTGTCTGACACCCACGCAAGGTGCCCCTCCACGGAGTCACCTAGTGCAG”, 3880 fluorescence intensity (a.u.).

The values above are taken from paper PMC7819943, “Rice protein-binding microarrays: a tool to detect cis-acting elements near promoter regions in rice”.
